We go through 2 molecules from paper PMC11075139 (RSC Advances, 2024).

The structures appear in SMILES notation.

The conditions of the series: PAMPA.

With `CC(C)NCC(O)COc1ccc(CC(N)=O)cc1` (centres unmarked) [Atenolol], the “Prediction of CNS penetration” value was “No (key: High: ‘CNS+’ (prediction of high BBB permeation); Pe (10^−6 cm s^−1) > 4.39; No: ‘CNS−’ (prediction of low BBB permeation); Pe (10^−6 cm s^−1) < 1.78)”. As to `CN1C(=O)CN=C(c2ccccc2)c2cc(Cl)ccc21` [Diazepam], the “Prediction of CNS penetration” value is “High (key: High: ‘CNS+’ (prediction of high BBB permeation); Pe (10^−6 cm s^−1) > 4.39; No: ‘CNS−’ (prediction of low BBB permeation); Pe (10^−6 cm s^−1) < 1.78)”.
